Reference: PubChem BioAssay AID1259308 (NCATS, 2017)
Shown is a random part of about 59,000 reagents. In the full data, about 1,510 (2.6%) got an active call. 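Calls use total luciferase alone and ignore viability, so some active siRNAs may act by altering cell number.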 Unmarked entries are inactive. Reagents against one gene are numbered here.

Purpose: 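Knock-downs that increase output of a recombinant reporter protein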 (primary screen)
Cell system: human HEK293 embryonic kidney cells stably expressing firefly luciferase (HEK-CMV-Luc2-Hygro)
Reagent: single siRNA against human genes, 0.8 pmol siRNA per well
Time to read-out: 72 h
Measured: 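Luciferase light (ONE-Glo) measured on one replicate plate set and viability (CellTiter-Glo) on the other, scaled to a negative control siRNA, with robust z-scores and luciferase per cell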
Reading the numbers: total luciferase, z-score and total luciferase, % of control: higher = more reporter protein produced; luciferase per cell, z-score: higher = more reporter output per viable cell; viable cells, % of control: higher = more viable cells
Call rule: 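Active when the median/MAD z-score for overall luciferase is greater than 3; a gene was taken forward for validation with new siRNAs if at least two of its three siRNAs passed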
Calls: active = raised luciferase; inactive = no rise

Target gene	reagent	total luciferase, z-score	total luciferase, % of control	luciferase per cell, z-score	viable cells, % of control
HM13	1	-0.368	74.6	-0.841	104
HM13	2	-0.258	76.7	-1.06	113
HM13	3	0.0541	83	-0.675	111
CERS2	1	-0.309	75.7	-0.441	95.1
CERS2	2	-0.0899	80.1	0.109	87
CERS2	3	-1.46	52.9	-0.0723	60.2
ADISSP	1	-0.677	68.4	-0.665	91.1
ADISSP	2	0.729	96.4	0.528	93.7
ADISSP	3	-0.042	81.1	0.136	87.4
CGN	1	-0.357	74.8	-0.892	106
CGN	2	-0.525	71.4	-0.759	97.5
CGN	3	0.205	86	-0.0817	98.1
PCSK9	1	0.638	94.6	0.186	101
PCSK9	2	2.62	134	1.47	102
PCSK9	3	-1.45	53	-1.5	87.8
MED11	1	-1.68	48.4	-0.467	61.2
MED11	2	-0.124	79.4	0.458	78.7
MED11	3	0.367	89.2	1.09	74.7
TAF12	1	1.11	104	1.77	72.9
TAF12	2	1.2	106	1.62	77.1
TAF12	3	0.79	97.6	0.712	90.4
PRRG2	1	-1.29	56.2	-1.09	83.8
PRRG2	2	0.19	85.7	-0.0452	96.9
PRRG2	3	-0.149	78.9	-0.906	112
EVC	1	-0.619	69.6	-0.439	87.3
EVC	2	-0.575	70.5	-0.926	100
EVC	3	0.346	88.8	0.364	90.1
SCIN	1	-0.391	74.1	-0.941	106
SCIN	2	-0.575	70.4	-1.36	113
SCIN	3	6.67 (active)	214	4.07	82.1
NELFA	1	2.79	137	2.76	74.1
NELFA	2	1.31	108	1.36	84.5
NELFA	3	4.92 (active)	180	2.21	112
PML	1	2.07	123	1.42	94.7
PML	2	-2.75	27.1	-3.92	85.1
PML	3	-0.897	64.1	-1.42	104
CHPF2	1	-0.836	65.3	-0.908	92.6
CHPF2	2	0.617	94.2	0.2	99.8
CHPF2	3	2.76	137	2.51	79
ABHD5	1	-0.164	78.6	-0.422	98.2
ABHD5	2	-0.0881	80.1	-0.0925	91.8
ABHD5	3	-1.39	54.3	-1.55	91.3
S100B	1	0.833	98.5	0.437	98
S100B	2	-0.151	78.9	-0.266	94.5
S100B	3	0.584	93.5	0.475	92.2
WFDC10A	1	0.485	91.5	0.0707	100
WFDC10A	2	-0.479	72.4	-0.1	83
WFDC10A	3	0.658	95	1.36	74.2
ANGPT1	1	0.282	87.5	-0.0478	99
ANGPT1	2	2.08	123	1.18	101
ANGPT1	3	-1.27	56.7	0.901	50
H2BC18	1	0.486	91.5	0.0837	100
H2BC18	2	0.645	94.7	0.0323	105
H2BC18	3	-0.387	74.2	-0.971	107
DHX37	1	-0.714	67.7	0.0278	75.1
DHX37	2	-1.28	56.4	-1.12	84.5
DHX37	3	-2.17	38.7	-2.78	89.8

Entries above marked active, once more:
Target gene	reagent	total luciferase, z-score	total luciferase, % of control	luciferase per cell, z-score	viable cells, % of control
SCIN	3	6.67 (active)	214	4.07	82.1
NELFA	3	4.92 (active)	180	2.21	112
